Small-molecule microarray binding calls

Source: the ROBIN nucleic acid binder screens (doi:10.1002/anie.202211358).

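Each compound is printed as two spots on a slide made to bind it covalently, so it has no test concentration; the read-out is fluorescence of the bound, labelled oligonucleotide. For the PreQ1, TPP and SAM-II riboswitches the laboratory earlier reported (doi:10.1038/s41467-019-09493-3) 1 µM RNA, 2 h, and a rule that included a mean Z-score above 3 (spot signal-to-noise against the whole library), a score well above that on a control array, and duplicate spots agreeing (coefficient of variation under 100). The data file gives only the calls; its cut-offs may differ, and compounds hitting several targets are kept. The calls come from the array alone, and fixing a compound to the slide can hide its binding.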 Key: Y = hit, N = tested without a hit. This is an unselected part of the compounds tested. A dash means that no call is listed here.

Targets, with sequences 5′ to 3′:
TPP: TPP riboswitch RNA three-way junction, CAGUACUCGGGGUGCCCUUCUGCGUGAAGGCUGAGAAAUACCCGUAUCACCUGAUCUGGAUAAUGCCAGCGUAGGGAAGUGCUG. About 24,000 compounds screened, about 160 hits.
PreQ1: PreQ1 riboswitch RNA pseudoknot, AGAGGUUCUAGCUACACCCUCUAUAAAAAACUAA. From B. subtilis. About 24,000 compounds screened, about 170 hits.
SAM-II: SAM-II riboswitch RNA pseudoknot, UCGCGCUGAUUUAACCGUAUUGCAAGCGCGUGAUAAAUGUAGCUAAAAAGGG. About 21,000 compounds screened, about 200 hits.

SMILES	TPP	PreQ1	SAM-II
Cc1cccc(NC(=O)Cn2nnc(C(=O)Nc3ccc(Br)cc3)c2N)c1	N	N	N
CC(O)CNc1ncnc2sc3c(c12)CCC3 (stereo not given)	N	N	N
CCOC(=O)[C@@H](N)CCC(=O)N[C@@H](CSCc1ccccc1)C(=O)N[C@@H](C(=O)OCC)c1ccccc1	N	N	N
COc1ccc(C(=O)O)nc1C	N	N	N
COC(=O)c1sc2nc(-c3ccncc3)ccc2c1N	N	N	N
Cc1cccc(C2C(C#N)=C(N)OC3=C2S(=O)(=O)N(Cc2ccc(Cl)cc2)c2ccccc23)c1 (stereo not given)	N	N	N
COc1ccccc1-c1cc2nc(C)cc(Nc3ccccc3)n2n1	N	N	-
CCCCOC(=O)c1c(N)n(-c2ccccc2OCC)c2nc3ccccc3nc12	N	N	N
OCCCc1nc2ccccc2n1Cc1c(Cl)cccc1Cl	N	N	N
CCOC(=O)c1ncn(-c2cccc(C(F)(F)F)c2)c1N	N	N	N
CSC(=N)NS(=O)(=O)c1ccc(NC(C)=O)cc1	N	N	N
Nc1nonc1-c1noc(CN2CCOCC2)n1	N	N	N
CC1CC(Nc2ccccc2)c2ccccc2N1C(=O)c1ccc(Cl)cc1 (stereo not given)	N	N	N
COc1ccc(CNc2ccc3c(c2)ncn3C(C)(C)C)cc1	N	N	N
CC1=CC2C(C(O)CC3(C)C2CC(C)C32OCOC23COCO3)C2(C)C/C(=C/O)C(=O)C=C12 (stereo not given)	N	N	N
C=CCOc1ccc(C2C(C#N)=C(N)OC3=C2C(=O)CCC3)cc1 (stereo not given)	N	N	N
NN=C1N=C(N)c2ccccc21	N	N	N
CCCNC(=O)N1CCc2cc(S(=O)(=O)NCCC(C)O)ccc2C1 (stereo not given)	N	N	N
Nc1nonc1C(=O)N1CCN(C(=O)c2ccco2)CC1	N	N	-
CN(C)C[C@H]1C[C@H](CO)CN(Cc2ccccc2-c2ccccc2)C1	N	N	N
Cc1ccc(CN2CCC(CN(C)C(=O)c3ccc(C4CCCN4)s3)CC2)o1 (stereo not given)	N	N	N
Cc1ccc2nc(C3=C(N)N(C4CCCCC4)CC3=O)[nH]c2c1	N	N	-
O=S1(=O)C[C@@H](O)[C@H](Nc2cc(-c3ccccc3)nc3ccnn23)C1	N	N	N
O=C(CCc1cc2n(n1)CCNC2)NCCn1ncc2ccccc2c1=O	N	N	N
C=CCN(CC=C)CC(O)COc1ccc2c(c1)c(C(C)=O)c(C)n2-c1ccccc1.Cl (stereo not given)	N	N	N
CC(=O)c1cccc(CN2CCCC(O)(CO)CC2)c1 (stereo not given)	N	N	N
Cc1ccc2nc(CNCC(C)Oc3cccnc3)[nH]c2c1C (stereo not given)	N	N	N
COc1cccc(N2CCN(C(=O)C(O)CC(C)C)CC2=O)c1 (stereo not given)	N	N	N
COc1ccc(C)cc1NS(=O)(=O)c1cc(Br)cnc1N	N	N	-
COCCN(C)C[C@H]1C[C@H](CO)CN(C(=O)C=C(C)C)C1	N	N	N
CC1=C(c2cccc(Br)c2)S(=O)(=O)N=C1Nc1c(C)cccc1C	N	N	-
CCSc1nnc([C@@H](N)Cc2ccccc2)o1	N	N	N
Cc1cc2c(c(=O)o1)C(c1c(Cl)cccc1Cl)C(C#N)=C(N)O2 (stereo not given)	N	N	N
O=C1CCCN1CC(=O)N1CC[C@H]2CC[C@@H](C1)N2	N	N	N
CCN1CCC(N[C@@H]2CC[C@@H]2NS(=O)(=O)c2cc3ccccc3o2)CC1	N	N	N
COc1ccc(-c2cc(C(F)(F)F)nc(NCc3cccnc3)n2)cc1OC	N	N	N
CC(=O)c1c(C)cc(C)c(CN2CCC(CN)C2)c1C (stereo not given)	N	N	N
O=C(N[C@@H]1CC[C@H](C(=O)Nc2cccc(CO)c2)C1)c1cnc2cccnn12	N	N	N
c1nc(NCc2ccc3c(c2)OCO3)c2c3c(sc2n1)CCCC3	N	N	-
COc1ccc(OCC(O)CN2CCN(c3ccccc3)CC2)cc1.Cl.Cl (stereo not given)	N	N	N
CCOC(=O)N1CCN(CC(O)COCc2ccc(Cl)cc2)CC1 (stereo not given)	N	N	N
O=C(O)c1cc(NCc2ccc(F)cc2)ccc1N1CCOCC1	N	N	N
CCC(=O)c1c(NCCO)cc(C)oc1=O	N	N	N
Cc1cc(C)n(-c2nc3ccccc3nc2Nc2ccc(N(C)C)cc2)n1	N	N	N
Cc1nccn1CCC(C)NCc1ccc2nonc2c1 (stereo not given)	N	N	N
COc1ccc(C2C(C#N)=C(N)Oc3[nH]nc(C)c32)cc1 (stereo not given)	N	N	N
CNc1ccnc(N2CCN(C(=O)Cc3ccccc3)CC(O)C2)n1 (stereo not given)	N	N	N
Cc1cccc2cc(C(=O)N3C[C@H](CO)C[C@H](CN4CCCC4)C3)oc12	N	N	N
COC(=O)c1ccccc1Nc1c(-c2ccc(C)o2)nc2cnccn12	N	N	-
CCOC(=O)C1CC(=O)c2cc(OC)c(OC)cc2C1 (stereo not given)	N	N	N
Cc1nc(CN(C)C(=O)c2cccc(CC3CCNCC3)c2)no1	N	N	N
Cc1ccc(NC(C)(C)C(=O)N2CCC(N3CCCC3=O)CC2)cc1	N	N	N
Nc1ccc(S(=O)(=O)c2ccccc2)cc1	N	N	N

Repeated from the top, 5 entries:

SMILES,TPP,PreQ1,SAM-II
Cc1cccc(NC(=O)Cn2nnc(C(=O)Nc3ccc(Br)cc3)c2N)c1,N,N,N
CC(O)CNc1ncnc2sc3c(c12)CCC3 (stereo not given),N,N,N
CCOC(=O)[C@@H](N)CCC(=O)N[C@@H](CSCc1ccccc1)C(=O)N[C@@H](C(=O)OCC)c1ccccc1,N,N,N
COc1ccc(C(=O)O)nc1C,N,N,N
COC(=O)c1sc2nc(-c3ccncc3)ccc2c1N,N,N,N